Test results as given in paper PMC6547695.
No constants are given. Whether binding was seen depends on the method and setting. Binding seen in cells or lysates may run through a third protein. Some results given as binding are weak or reduced against the parent protein; the word gives no strength.

Amino acid sequences for entries named in this document (tags omitted). Residues count along the entry.
UniProt P29317, residues 24-976: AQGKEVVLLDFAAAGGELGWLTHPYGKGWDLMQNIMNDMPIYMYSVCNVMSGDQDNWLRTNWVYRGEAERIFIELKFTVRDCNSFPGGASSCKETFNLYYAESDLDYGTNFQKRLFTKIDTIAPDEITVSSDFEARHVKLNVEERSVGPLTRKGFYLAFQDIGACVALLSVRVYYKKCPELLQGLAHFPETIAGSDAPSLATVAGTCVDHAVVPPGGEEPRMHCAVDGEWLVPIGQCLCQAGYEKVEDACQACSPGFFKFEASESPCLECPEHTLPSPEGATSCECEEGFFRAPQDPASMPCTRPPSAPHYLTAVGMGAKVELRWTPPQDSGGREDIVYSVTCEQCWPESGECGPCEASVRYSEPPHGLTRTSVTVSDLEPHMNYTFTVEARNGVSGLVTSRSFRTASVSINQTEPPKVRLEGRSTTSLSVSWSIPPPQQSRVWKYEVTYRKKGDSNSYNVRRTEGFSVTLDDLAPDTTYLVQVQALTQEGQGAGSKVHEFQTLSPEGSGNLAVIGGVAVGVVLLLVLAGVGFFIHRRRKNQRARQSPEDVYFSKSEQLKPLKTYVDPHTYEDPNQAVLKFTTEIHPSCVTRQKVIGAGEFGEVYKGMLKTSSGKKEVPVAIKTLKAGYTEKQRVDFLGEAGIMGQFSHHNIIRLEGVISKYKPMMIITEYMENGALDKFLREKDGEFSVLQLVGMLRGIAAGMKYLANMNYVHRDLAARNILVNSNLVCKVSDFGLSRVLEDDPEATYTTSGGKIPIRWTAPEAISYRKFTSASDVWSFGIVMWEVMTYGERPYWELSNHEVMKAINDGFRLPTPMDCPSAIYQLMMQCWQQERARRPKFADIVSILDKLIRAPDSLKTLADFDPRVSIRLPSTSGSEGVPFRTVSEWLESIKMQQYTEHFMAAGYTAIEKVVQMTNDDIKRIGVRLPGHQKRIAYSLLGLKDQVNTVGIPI

Biological target: ephrin type-A receptor 2 (EPHA2) (human (endogenous in A549)) (UniProt P29317)
Test: co-IP; cell lysates immunoprecipitated with anti-EPHB6 or anti-EPHA2 antibodies, western blot of the precipitate (Fig. 2c); for c-Cbl the cells were treated with MG132 (10 µM) for 3 h and lysates precipitated with anti-EPHB6 antibody (Fig. 2d)

binding | Binder
binds | ephrin type-B receptor 6 (EPHB6), wild type (receptor, UniProt O15197 32-1021) LEEVLLDTTGETSEIGWLTYPPGGWDEVSVLDDQRRLTRTFEACHVAGAPPGTGQDNWLQTHFVERRGAQRAHIRLHFSVRACSSLGVSGGTCRETFTLYYRQAEEPDSPDSVSSWHLKRWTKVDTIAADESFPSSSSSSSSSSSAAWAVGPHGAGQRAGLQLNVKERSFGPLTQRGFYVAFQDTGACLALVAVRLFSYTCPAVLRSFASFPETQASGAGGASLVAAVGTCVAHAEPEEDGVGGQAGGSPPRLHCNGEGKWMVAVGGCRCQPGYQPARGDKACQACPRGLYKSSAGNAPCSPCPARSHAPNPAAPVCPCLEGFYRASSDPPEAPCTGPPSAPQELWFEVQGSALMLHWRLPRELGGRGDLLFNVVCKECEGRQEPASGGGGTCHRCRDEVHFDPRQRGLTESRVLVGGLRAHVPYILEVQAVNGVSELSPDPPQAAAINVSTSHEVPSAVPVVHQVSRASNSITVSWPQPDQTNGNILDYQLRYYDQAEDESHSFTLTSETNTATVTQLSPGHIYGFQVRARTAAGHGPYGGKVYFQTLPQGELSSQLPERLSLVIGSILGALAFLLLAAITVLAVVFQRKRRGTGYTEQLQQYSSPGLGVKYYIDPSTYEDPCQAIRELAREVDPAYIKIEEVIGTGSFGEVRQGRLQPRGRREQTVAIQALWAGGAESLQMTFLGRAAVLGQFQHPNILRLEGVVTKSRPLMVLTEFMELGPLDSFLRQREGQFSSLQLVAMQRGVAAAMQYLSSFAFVHRSLSAHSVLVNSHLVCKVARLGHSPQGPSCLLRWAAPEVIAHGKHTTSSDVWSFGILMWEVMSYGERPYWDMSEQEVLNAIEQEFRLPPPPGCPPGLHLLMLDTWQKDRARRPHFDQLVAAFDKMIRKPDTLQAGGDPGERPSQALLTPVALDFPCLDSPQAWLSAIGLECYQDNFSKFGLCTFSDVAQLSLEDLPALGITLAGHQKKLLHHIQLLQQHLRQQGSVEV
binds | ephrin type-B receptor 6 (EPHB6) Q926R mutant (receptor, UniProt O15197 32-1021) LEEVLLDTTGETSEIGWLTYPPGGWDEVSVLDDQRRLTRTFEACHVAGAPPGTGQDNWLQTHFVERRGAQRAHIRLHFSVRACSSLGVSGGTCRETFTLYYRQAEEPDSPDSVSSWHLKRWTKVDTIAADESFPSSSSSSSSSSSAAWAVGPHGAGQRAGLQLNVKERSFGPLTQRGFYVAFQDTGACLALVAVRLFSYTCPAVLRSFASFPETQASGAGGASLVAAVGTCVAHAEPEEDGVGGQAGGSPPRLHCNGEGKWMVAVGGCRCQPGYQPARGDKACQACPRGLYKSSAGNAPCSPCPARSHAPNPAAPVCPCLEGFYRASSDPPEAPCTGPPSAPQELWFEVQGSALMLHWRLPRELGGRGDLLFNVVCKECEGRQEPASGGGGTCHRCRDEVHFDPRQRGLTESRVLVGGLRAHVPYILEVQAVNGVSELSPDPPQAAAINVSTSHEVPSAVPVVHQVSRASNSITVSWPQPDQTNGNILDYQLRYYDQAEDESHSFTLTSETNTATVTQLSPGHIYGFQVRARTAAGHGPYGGKVYFQTLPQGELSSQLPERLSLVIGSILGALAFLLLAAITVLAVVFQRKRRGTGYTEQLQQYSSPGLGVKYYIDPSTYEDPCQAIRELAREVDPAYIKIEEVIGTGSFGEVRQGRLQPRGRREQTVAIQALWAGGAESLQMTFLGRAAVLGQFQHPNILRLEGVVTKSRPLMVLTEFMELGPLDSFLRQREGQFSSLQLVAMQRGVAAAMQYLSSFAFVHRSLSAHSVLVNSHLVCKVARLGHSPQGPSCLLRWAAPEVIAHGKHTTSSDVWSFGILMWEVMSYGERPYWDMSEQEVLNAIEQEFRLPPPPGCPPGLHLLMLDTWQKDRARRPHFDQLVAAFDKMIRKPDTLRAGGDPGERPSQALLTPVALDFPCLDSPQAWLSAIGLECYQDNFSKFGLCTFSDVAQLSLEDLPALGITLAGHQKKLLHHIQLLQQHLRQQGSVEV
